Assay results reported in patent US20210284747A1.
No constants are given. Whether binding was seen depends on the method and setting. Some results given as binding are weak or reduced against the parent protein; the word gives no strength.

Protein sequences, listed by entry. Tags and fused reporters are not part of them.
UniProt O43557: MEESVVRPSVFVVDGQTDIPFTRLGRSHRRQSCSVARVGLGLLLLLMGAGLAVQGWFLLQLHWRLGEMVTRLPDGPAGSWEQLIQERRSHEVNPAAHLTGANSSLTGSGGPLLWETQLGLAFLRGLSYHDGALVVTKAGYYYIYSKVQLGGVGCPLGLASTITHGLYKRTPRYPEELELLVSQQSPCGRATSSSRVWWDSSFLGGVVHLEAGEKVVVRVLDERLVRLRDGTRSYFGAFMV

Tests used:
[1] = target: Human LIGHT stably expressed on EL4 cells (EL4-LIGHT) (human) (UniProt O43557); assay: flow cytometry competition on EL4-LIGHT cells; blocked ligand DcR3-Fc-AF647 0.8 ug/ml
[2] = target: Native LIGHT on stimulated human donor blood cells (human) (UniProt O43557); assay: flow cytometry on anti-CD3/anti-CD28 stimulated human donor CD8 T cells, APC signal
[3] = target: Native LIGHT on stimulated human donor blood cells (human) (UniProt O43557); assay: flow cytometry, APC-labelled mAbs on stimulated donor cells; also CD4 cells, neutrophils, monocytes, macrophages
[4] = target: Native LIGHT on stimulated human donor blood cells (human) (UniProt O43557); assay: flow cytometry, stimulated CD8 T cells
[5] = target: Human LIGHT stably expressed on EL4 cells (EL4-LIGHT) (human) (UniProt O43557); assay: flow cytometry, EL4-LIGHT cells
[6] = target: Human LIGHT stably expressed on EL4 cells (EL4-LIGHT) (human) (UniProt O43557); assay: flow cytometry on EL4-LIGHT cells, 40 min 4 C, Alexa Fluor 647 goat anti-human IgG F(ab')2 specific detection [cont.]
[7] = target: Human LIGHT stably expressed on EL4 cells (EL4-LIGHT) (human) (UniProt O43557); assay: flow cytometry on EL4-LIGHT cells, 40 min 4 C, Alexa Fluor 647 goat anti-human IgG F(ab')2 specific detection
[8] = target: Human LIGHT stably expressed on EL4 cells (EL4-LIGHT) (human) (UniProt O43557); assay: flow cytometry on EL4-LIGHT cells

Measured: binding

B1: 2B11 chimeric IgG4 mAb (antibody, V domains shown)
VH: EVQLVESGAELVRPGVSVKISCKGSGYTFTDYAIHWVKQSHAKSLEWIGVISTYYGDASYNQKFKGKATMTVDKSSSTAYMELARLTSEDSAIYYCARSRGEYGNYDAMDYWGQGTSVTVSS
VL: DIVLTQSPASLAVSLGQRATISCRASESVDSYGNSFMHWYQQKPGQPPKLLIYRASNLESGIPARFSGSGSRTDFTLTINPVEADDVATYYCQQSNEDPYTFGGGTKLEIK
not listed: [7] | [8]
binds: all other assays above

B2: 3C10 chimeric IgG4 mAb (antibody, V domains shown)
VH: EVQLQQSGAELVRPGASVTLSCKASDYTFTDSEIHWVKQTPVHGLEWIGEIDPETGGTAYNQKFKGKATLTADKSSSTAYMELRSLTSEDSAVYYCSRETDYFFDYWGQGTTLTVSS
VL: DVVMTQTPAIMSASPGEKVTMTCSASSSVSYMYWYQQKPGSSPRLLIYDTSNLASGVPVRFSGSGSGTSYSLTISRMEAEDAATYYCQQWSSYPLTFGAGTKLELK
binds: [7] | [2] | [3] | [4] | [5]

B3: 3A07 chimeric IgG4 mAb (antibody, V domains shown)
VH: QVQLQQSGAELVRPGAPVTLSCKASDYTFTDSEIHWVKQTPVHGLEWIGEIDPETGGTAYNQKFKGKATLTADKSSSTAYMELRSLTSEDSAVYYCSRETDYFFDYWGQGTTLTVSS
VL: ENVLTQSPAIMSASPGEKVTMTCSASSSVSYMYWYQQRPGSSPRLLIYDTSNLASGVPVRFSGSGSGTSYSLTISRMEAEDAATYYCQQWSSYPLTFGSGTKLEIK
binds: [7] | [2] | [3] | [4] | [5]

B4: 3B04 chimeric IgG4 mAb (antibody, V domains shown)
VH: QVQLQQPGAELVRPGASVTLSCKASGYTFTDYEMHWVKQTPVHGLEWIGEIDPETGDTAYSQKFKGKATLTADKSSSTAYMEFRSLTSEDSAVYYCSRETDYFFDYWGQGTTLTVSS
VL: DIQMTQTPASLSASVGETVTITCGASENIYGALNWYQRKQGKSPQLLIYGATNLADGMSSRFSGSGSGRQYSLKISSLHPDDFATYYCQNVLTTPWTFGGGTKLEIK
not listed: [6]
binds: all other assays above

B5: 3D12 chimeric IgG4 mAb (antibody, V domains shown)
VH: QVQLQQPGAELVRPGASVTLSCKASDYTFTDSEIHWVKQTPVHGLEWIGEIDPETGGTAYNQKFKGKATLTADKSSSTAYMELRSLTSEDSAVYYCSRETDYFFDYWGQGTTLTVSS
VL: DIQMTQSPASLSASVGETVTITCGASENIYGALNWYQRKQGKSPQLLIYGATNLADGMSSRFSGSGSGRQYSLKISSLHPDDVATYYCQNVLSTPWTFGGGTKLEIK
not listed: [7]
binds: all other assays above
